# About 6,100 (1.1%) of roughly 580,000 compounds were called active. Inconclusive results, whose numbers are uncertain, are shown with a selection of clear calls. The call rests on the fitted dose curve; in most records, active means well fitted inhibition curve with a large enough effect; inconclusive means small, poorly fitted or top-dose-only effect, or another doubt; inactive means no such curve, though single readings can be large or run the other way. A potency beside an inconclusive call is a rough fit, not a confirmed value.
# Chains of the proteins cited; added tags and fusions are not shown. Lines headed by an entry give the natural chain unless they say otherwise; changes in a name come on top.
# UniProt P18054: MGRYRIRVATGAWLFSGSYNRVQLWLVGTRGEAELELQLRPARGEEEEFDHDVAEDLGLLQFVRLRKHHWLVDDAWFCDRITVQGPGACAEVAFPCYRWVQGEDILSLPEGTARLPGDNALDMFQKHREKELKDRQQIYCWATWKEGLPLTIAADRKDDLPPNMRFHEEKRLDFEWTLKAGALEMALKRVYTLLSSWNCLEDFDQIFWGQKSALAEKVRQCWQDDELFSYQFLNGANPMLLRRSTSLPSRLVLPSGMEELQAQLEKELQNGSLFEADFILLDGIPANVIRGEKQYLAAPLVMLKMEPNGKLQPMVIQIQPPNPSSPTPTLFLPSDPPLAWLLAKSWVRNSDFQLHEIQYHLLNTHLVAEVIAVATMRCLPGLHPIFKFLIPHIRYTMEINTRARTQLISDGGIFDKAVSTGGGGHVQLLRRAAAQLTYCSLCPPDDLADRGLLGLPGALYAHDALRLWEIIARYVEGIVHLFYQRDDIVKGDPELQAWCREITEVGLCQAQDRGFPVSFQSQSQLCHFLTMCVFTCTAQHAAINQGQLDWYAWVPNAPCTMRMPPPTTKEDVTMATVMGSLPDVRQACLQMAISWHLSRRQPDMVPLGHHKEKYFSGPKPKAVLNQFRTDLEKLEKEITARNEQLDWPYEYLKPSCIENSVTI
# Target: Polyunsaturated fatty acid lipoxygenase ALOX12 (Homo sapiens) (UniProt P18054)
# Test: Primary qHTS assay for inhibitors of human arachidonate 12S-lipoxygenase (ALOX12): Round 2
# Details: purified 12hLO, xylenol orange hydroperoxide absorbance; series mostly up to 108 µM
# Summary of the method: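 Purified human 12hLO at 150 nM in 25 mM Hepes, 0.01% Triton X-100, pH 7.0, preincubated 15 min at room temperature with compound. Reaction started with 40 uM arachidonic acid, 30 min at room temperature. Hydroperoxide measured by Fe-xylenol orange, 573/405 nm absorbance ratio.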
# Potency means the concentration at half of the fitted maximal effect.
row,SMILES,Potency
1,COc1ccc(OC(=O)N(C)C[C@@H]2OCc3cn(nn3)CCCC(=O)N([C@@H](C)CO)C[C@H]2C)cc1,"inconclusive: 44.7 µM [inhibitor, partial curve, poor fit]"
2,Cc1ccc(S(=O)(=O)/N=C2\C=C(NS(=O)(=O)c3ccccc3)C(=O)c3ccccc32)c(C)c1,"inconclusive: 0.708 µM [inhibitor, partial curve, poor fit]"
3,Cc1nnc(C)c2c(C)n(-c3ccccc3N)c(C)c12,inactive
4,Cc1cccc(CSc2nc3ccncc3n2Cc2ccc(C(=O)NCCN(C)C)cc2)c1,inactive
5,COc1cc(/C=N\Nc2nc3ccccc3o2)cc(OC)c1OC,inactive
6,COc1ccccc1N1CCN(C(=O)c2cc(-c3ccccc3)on2)CC1,inactive
7,CCOc1ccc(NC(=O)CN(C)C(=O)c2cc(-c3ccc(OC)cc3)nc3ccccc23)cc1OCC,"inconclusive: 44.7 µM [inhibitor, partial curve, poor fit]"
8,CCOc1ccc(NC(=S)Nc2ccc(OC)cc2)cc1,"inconclusive: 25.1 µM [inhibitor, full curve, poor fit]"
9,Cc1ccc(NC(=O)Cn2cncc2-c2ccc([N+](=O)[O-])cc2)cc1C,"inconclusive: 100 µM [inhibitor, single point]"
10,Cc1ccccc1OCC(=O)Nc1ccc2c(c1)n(C)c(=O)n2C,inactive
11,CCCCCCCOc1ccc(S(=O)(=O)c2ccc(OCCCCCCC)cc2)cc1,"inconclusive: 44.7 µM [inhibitor, partial curve, poor fit]"
12,c1csc(CNc2ccn3nc(-c4ccc(OCCN5CCOCC5)cc4)cc3n2)c1,inactive
13,COc1ccc(-c2nc(-c3ccccc3OC)no2)cc1OC,inactive
14,O=C(c1ccccc1-c1ccccc1F)N(Cc1cccnc1)C1CC1,inactive
15,O=C(CSc1nncn1-c1ccccc1)Nc1cccc(S(=O)(=O)N2CCCC2)c1,inactive
16,C=CCn1c(Br)nc2c1c(=O)n(C)c(=O)n2C,"inconclusive: 35.5 µM [inhibitor, partial curve, poor fit]"
17,Cc1ncsc1C(=O)NCCc1cccs1,inactive
18,Cc1ccc(S(=O)(=O)N2CCOCC2)cc1NC(=O)CSc1nnc(C2CC2)n1C1CC1,"inconclusive: 141 µM [inhibitor, single point]"
19,COc1ccc2c(c1OC)C(=O)OC2OC (stereo unspecified),inactive
20,CO/N=C/c1ccc(N2CCN(C(=O)c3cccc(C(F)(F)F)c3)CC2)c([N+](=O)[O-])c1,inactive
21,COc1cccc(CNC(=O)C(c2ccc(F)cc2)N(C)C)c1OC (stereo unspecified),inactive
22,Cc1ccc(-c2csc(/C=C3/SC(C)C(=O)N3CC(=O)Nc3ccccc3F)n2)cc1 (stereo unspecified),"inconclusive: 50.1 µM [inhibitor, partial curve, poor fit]"
23,CCCCn1c(N)c(N(CCOC)C(=O)CCCc2nc3ccccc3c(=O)[nH]2)c(=O)[nH]c1=O,"inconclusive: 35.5 µM [inhibitor, partial curve, poor fit]"
24,NC(=S)Nc1cc2ccccc2c2ccccc12,"inconclusive: 44.7 µM [inhibitor, partial curve, poor fit]"

row,SMILES,Potency
1,COc1cccc(/C=N/NC(=O)c2c(C)nc3ccc(Cl)cn23)c1OC,"inconclusive: 31.6 µM [inhibitor, single point]"
2,CCCc1cc(=O)oc2cc(C)cc(OCC(=O)C(C)(C)C)c12,"inconclusive: 126 µM [inhibitor, partial curve, poor fit]"
3,CCc1ccc(N=Nc2ccc(O)c3[nH]cnc23)cc1,"inconclusive: 89.1 µM [inhibitor, single point]"
4,Oc1c(Br)cc(/C=N/NC(=S)NCC2CCCO2)cc1Br (stereo unspecified),inactive
5,COc1ccc(-c2cnc3c(NC=O)cc(-c4cc(OC)c(OC)c(OC)c4)cn23)cc1OC,inactive
6,COC(=O)c1ccccc1NC(=O)CN1CCOCC1,inactive
7,COc1cccc(C2C(=O)N(C3CCCCC3)CC(=O)N2CCc2ccc(OC)c(OC)c2)c1 (stereo unspecified),inactive
8,Nc1nc(N)c(S(=O)(=O)c2ccccc2)c(Nc2ccccc2)n1,inactive
9,S=c1[nH]nc(C2CCCCC2)n1/N=C/c1ccco1,"inconclusive: 79.4 µM [inhibitor, partial curve, poor fit]"
10,CCCC(C1=C(O)CC(C)(C)CC1=O)C1C(=O)CC(C)(C)CC1=O (stereo unspecified),"inconclusive: 28.2 µM [inhibitor, single point]"
11,c1ccc(CCn2nnnc2CN2CCc3ccccc32)cc1,"inconclusive: 3.16 µM [inhibitor, full curve, poor fit]"
12,Cc1ccc(CNC(=O)/C=C/c2ccc(Br)o2)cc1,"inconclusive: 39.8 µM [inhibitor, partial curve, poor fit]"
13,O=C(O)CC(CC(=O)O)c1ccccn1,"inconclusive: 112 µM [inhibitor, single point]"
14,CCN1CCN(C(=S)c2ccc(OCC(=O)N3CCOCC3)cc2)CC1,"inconclusive: 5.01 µM [inhibitor, full curve, poor fit]"
15,COc1ccc(NCCC(c2ccc(F)cc2)c2ccc(Cl)cc2)cc1 (stereo unspecified),"inconclusive: 0.562 µM [inhibitor, full curve, poor fit]"
16,O=C(O)C1(c2cccc(Br)c2)CCCC1,"inconclusive: 22.4 µM [inhibitor, partial curve, poor fit]"
17,Cc1ccsc1/C=N/n1c(-c2ccncc2)n[nH]c1=S,"inconclusive: 50.1 µM [inhibitor, partial curve, poor fit]"
18,COC(=O)C1CCN(C2=C(NS(=O)(=O)c3ccc(Cl)cc3)C(=O)c3ccccc3C2=O)CC1,inactive
19,Fc1ccc(NC(=S)NCCC(c2ccccc2)c2ccccc2)cc1Cl,active: 25.1 µM
20,O=C1CN(c2ccccc2Cl)C(=O)CN1c1ccccc1Cl,inactive
21,COc1cccc(/C=C/C(=O)c2ccc(O)c(CCCl)c2)c1,"inconclusive: 44.7 µM [inhibitor, partial curve, poor fit]"
22,O=c1cc(C(F)(F)F)oc2c1ccc1ccccc12,inactive
23,Cc1cnc(C)c(N2CCC(C(=O)O)(n3ccc(-c4ccco4)n3)CC2)n1,"inconclusive: 1.12 µM [inhibitor, full curve, poor fit]"
24,O=c1[nH]c(/C=C/c2ccc([N+](=O)[O-])cc2)c([N+](=O)[O-])c(=O)[nH]1,"inconclusive: 56.2 µM [inhibitor, partial curve, poor fit]"

row,SMILES,Potency
1,Oc1cccc(/C=N/Nc2cc(N3CCCC3)nc(N3CCCC3)n2)c1,"inconclusive: 89.1 µM [inhibitor, partial curve, poor fit]"
2,Cc1ccc(NC(=O)c2oc3ccccc3c2NC(=O)C2CCCCC2)cc1,"inconclusive: 39.8 µM [inhibitor, full curve, poor fit]"
3,CCOc1ccc(N(Cc2cc3ccc(C)cc3[nH]c2=O)S(C)(=O)=O)cc1,"inconclusive: 89.1 µM [inhibitor, partial curve, poor fit]"
4,CCOc1ccc(NC(=O)c2nc3ccccc3nc2N(CC)CC)cc1,inactive
5,O=c1nc2n(-c3ccc(Cl)c(Cl)c3)c3cc(Cl)ccc3cc-2c(=O)[nH]1,"inconclusive: 44.7 µM [inhibitor, partial curve, poor fit]"
6,CCn1cc(CN(C)C(=O)/C=C/c2ccc([N+](=O)[O-])cc2)c(C)n1,inactive
7,O=C(CNCc1cccs1)Nc1ccc(OC(F)(F)F)cc1,"inconclusive: 0.562 µM [inhibitor, full curve, poor fit]"
8,CC(=O)c1ccccc1NC(=O)COC(=O)CCC1CCCC1,inactive
9,CC(=O)N1Cc2cc(C(=O)NCc3cccc(F)c3)nc(-c3cccc(C4=CCCC4)c3)c2[C@H]1CCO,"inconclusive: 79.4 µM [inhibitor, single point]"
10,COc1cccc(Cn2c(=O)c(-c3cccs3)nc3cnc(N4CCOCC4)nc32)c1,"inconclusive: 25.1 µM [inhibitor, single point]"
11,O=C(c1ccc(Br)o1)N1CC2CC(C1)[C@H]1CCCC(=O)N1C2 (stereo partly specified),inactive
12,COc1ccc(Cc2nc3ccc(C(=O)N4CCCC4)cc3o2)cc1,inactive
13,Clc1ccc(SCCCCN2CCOCC2)cc1,"inconclusive: 4.47 µM [inhibitor, full curve, poor fit]"
14,COc1ccc(CCCc2nnc(SCC(=O)NN)o2)cc1,inactive
15,CCCCC1(CC(=O)OC)C(=O)N(c2ccccc2)N(c2ccccc2)C1=O,inactive
16,COc1cc(-c2ccc3ncc(-c4cccc(C(F)(F)F)c4)n3n2)cc(OC)c1OC,"inconclusive: 89.1 µM [inhibitor, single point]"
17,CN(C)c1ccc(C(=S)NCc2ccco2)cc1,"inconclusive: 35.5 µM [inhibitor, partial curve, poor fit]"
18,CCC(=O)N1c2ccc(S(=O)(=O)CCC(=O)NCc3ccc(OC)cc3)cc2CC1C (stereo unspecified),"inconclusive: 50.1 µM [inhibitor, partial curve]"
19,Cc1cccc(Nc2nnc(SCC(=O)c3ccc(O)cc3O)s2)c1,"inconclusive: 44.7 µM [inhibitor, partial curve]"
20,O=C1/C(=C/c2ccc3ccccc3c2)COc2ccccc21,inactive
21,O=S(=O)(Nc1ccc(OC(F)(F)F)cc1)c1ccc(N2CCCCS2(=O)=O)cc1,"inconclusive: 44.7 µM [inhibitor, partial curve, poor fit]"
22,CCNC(=O)c1c(C)oc2c1CN(Cc1ccc(Br)o1)CC2,"inconclusive: 5.62 µM [inhibitor, full curve]"
23,CC(=O)Nc1ccc(NC(=S)NC(=O)c2oc3ccccc3c2C)cc1,"inconclusive: 56.2 µM [inhibitor, partial curve, poor fit]"

# Reprinted at random: four compounds from above
row,SMILES,Potency
22,Cc1ccc(-c2csc(/C=C3/SC(C)C(=O)N3CC(=O)Nc3ccccc3F)n2)cc1 (stereo unspecified),"inconclusive: 50.1 µM [inhibitor, partial curve, poor fit]"
5,COc1ccc(-c2cnc3c(NC=O)cc(-c4cc(OC)c(OC)c(OC)c4)cn23)cc1OC,inactive
5,COc1cc(/C=N\Nc2nc3ccccc3o2)cc(OC)c1OC,inactive
4,Cc1cccc(CSc2nc3ccncc3n2Cc2ccc(C(=O)NCCN(C)C)cc2)c1,inactive

# From PubChem BioAssay AID1671190 (National Center for Advancing Translational Sciences (NCATS), 2021)
